Measurements reported in article PMC11982563.
No constants are given. Whether binding was seen depends on the method and setting. In cells and extracts the contact can be indirect. A result given as binding can be weak or reduced; the word gives no strength. Where a sequence is shown, tags or fusion partners need not be part of it.

Biological target: T1, ANO1-YFP (mouse) (UniProt Q8BHY3)
T1 sequence: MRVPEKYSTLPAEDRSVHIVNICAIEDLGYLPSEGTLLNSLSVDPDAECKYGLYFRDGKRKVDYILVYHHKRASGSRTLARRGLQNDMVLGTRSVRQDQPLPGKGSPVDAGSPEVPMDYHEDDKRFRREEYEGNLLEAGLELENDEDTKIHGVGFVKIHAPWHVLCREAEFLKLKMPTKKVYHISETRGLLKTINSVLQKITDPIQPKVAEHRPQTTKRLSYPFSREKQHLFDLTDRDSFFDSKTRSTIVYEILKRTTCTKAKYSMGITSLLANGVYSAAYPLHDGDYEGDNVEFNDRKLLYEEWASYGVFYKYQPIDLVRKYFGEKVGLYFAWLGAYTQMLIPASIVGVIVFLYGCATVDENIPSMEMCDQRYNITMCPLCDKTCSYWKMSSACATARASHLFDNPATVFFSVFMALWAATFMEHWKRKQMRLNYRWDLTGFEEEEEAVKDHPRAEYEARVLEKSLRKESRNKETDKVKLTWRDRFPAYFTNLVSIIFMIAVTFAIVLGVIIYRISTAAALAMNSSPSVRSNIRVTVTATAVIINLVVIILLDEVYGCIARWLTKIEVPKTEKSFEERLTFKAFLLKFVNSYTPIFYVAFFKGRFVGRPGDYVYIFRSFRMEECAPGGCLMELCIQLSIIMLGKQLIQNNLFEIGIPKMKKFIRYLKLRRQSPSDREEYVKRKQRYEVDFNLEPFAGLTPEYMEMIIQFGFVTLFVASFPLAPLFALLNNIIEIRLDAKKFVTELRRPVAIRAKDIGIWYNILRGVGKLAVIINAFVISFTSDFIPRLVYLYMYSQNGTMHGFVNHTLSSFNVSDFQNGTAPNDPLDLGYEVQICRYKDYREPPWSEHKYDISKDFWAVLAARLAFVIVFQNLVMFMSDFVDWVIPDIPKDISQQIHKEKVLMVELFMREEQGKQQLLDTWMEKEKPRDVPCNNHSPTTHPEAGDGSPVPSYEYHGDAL
Experiment: FRET or BRET; fluorescently tagged proteins co-expressed in HEK293 cells on glass-bottom dishes, live cells in bath solution; imaged before and after 2.5 uM forskolin + 50 uM IBMX; also with CPA, siRNA of ACs and AKAPs, STIM1-/- cells and co-expressed VAPA, E-Syt1, E-Syt2, AC8 or AKAP5

binding: binds
Substance: PKA-RII
